This is one part of the list.
Legend:
Test in all cases: log2 fold change, soluble protein after heating vs DMSO (PISA); higher = thermal stabilisation; K562 cells, 10 uM, 30 min; active = over 0.2 and 3.5 SD of the protein, either way, in both replicates (recomputed)
[1] = compound: CC1=C(C=C(C=C1)NC(=O)C2=CC(=CC=C2)C(C)(C)C#N)NC3=CC4=C(C=C3)N=CN(C4=O)C
Procedure, shortened: (§1)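 Values are thermal stability changes relative to control samples and are taken from duplicates. They are stated as log2 fold changes. Before quantification by TMTpro 16plex LC-MS/MS with equalised channel sums, K562 cells at 2×10^6 cells/mL were treated with 10 μM compound for 30 min, heated in aliquots for 3 min across 48°C-58°C, pooled, extracted in PBS with 0.5% NP-40 at 4°C, and centrifuged at 21,000xg for 90 min to give the soluble supernatant.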

Sequences of proteins named here, by UniProt entry; tags and fusion partners are left off. A change or cut given only in a name is not applied to a line headed by its entry.
UniProt P49368: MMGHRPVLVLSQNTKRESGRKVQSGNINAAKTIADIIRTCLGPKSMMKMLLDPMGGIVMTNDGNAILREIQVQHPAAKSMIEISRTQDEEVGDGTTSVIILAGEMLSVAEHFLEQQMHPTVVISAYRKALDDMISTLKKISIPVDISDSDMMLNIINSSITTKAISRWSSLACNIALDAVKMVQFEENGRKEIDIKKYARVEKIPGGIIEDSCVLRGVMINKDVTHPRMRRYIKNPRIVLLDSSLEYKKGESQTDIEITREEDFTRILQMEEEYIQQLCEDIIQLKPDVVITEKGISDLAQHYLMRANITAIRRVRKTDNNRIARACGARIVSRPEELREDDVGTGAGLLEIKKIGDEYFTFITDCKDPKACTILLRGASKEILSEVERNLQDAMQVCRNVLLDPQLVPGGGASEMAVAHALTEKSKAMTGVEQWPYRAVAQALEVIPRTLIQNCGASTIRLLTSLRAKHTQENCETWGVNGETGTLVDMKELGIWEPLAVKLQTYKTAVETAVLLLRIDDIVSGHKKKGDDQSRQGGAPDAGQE
UniProt Q86X55: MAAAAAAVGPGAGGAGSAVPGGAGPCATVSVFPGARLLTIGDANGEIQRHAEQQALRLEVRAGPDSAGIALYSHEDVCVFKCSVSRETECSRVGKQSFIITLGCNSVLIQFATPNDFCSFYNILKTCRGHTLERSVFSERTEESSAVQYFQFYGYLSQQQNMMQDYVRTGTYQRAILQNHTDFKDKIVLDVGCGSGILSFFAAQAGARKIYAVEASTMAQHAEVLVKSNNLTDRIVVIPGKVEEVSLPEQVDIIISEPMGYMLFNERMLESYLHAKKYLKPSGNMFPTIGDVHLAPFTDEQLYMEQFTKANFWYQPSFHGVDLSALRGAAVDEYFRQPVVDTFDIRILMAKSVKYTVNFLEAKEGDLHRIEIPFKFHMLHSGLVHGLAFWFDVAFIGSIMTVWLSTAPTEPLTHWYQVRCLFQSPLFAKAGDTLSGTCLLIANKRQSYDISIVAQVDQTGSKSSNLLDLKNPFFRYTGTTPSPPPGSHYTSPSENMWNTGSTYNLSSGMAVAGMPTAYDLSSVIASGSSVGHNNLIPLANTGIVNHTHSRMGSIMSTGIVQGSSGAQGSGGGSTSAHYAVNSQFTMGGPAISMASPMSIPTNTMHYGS
UniProt Q4VC31: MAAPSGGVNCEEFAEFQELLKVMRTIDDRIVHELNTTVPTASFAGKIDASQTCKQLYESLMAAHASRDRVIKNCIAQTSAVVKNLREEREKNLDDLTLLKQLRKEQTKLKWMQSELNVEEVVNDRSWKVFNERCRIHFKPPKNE
UniProt P15529: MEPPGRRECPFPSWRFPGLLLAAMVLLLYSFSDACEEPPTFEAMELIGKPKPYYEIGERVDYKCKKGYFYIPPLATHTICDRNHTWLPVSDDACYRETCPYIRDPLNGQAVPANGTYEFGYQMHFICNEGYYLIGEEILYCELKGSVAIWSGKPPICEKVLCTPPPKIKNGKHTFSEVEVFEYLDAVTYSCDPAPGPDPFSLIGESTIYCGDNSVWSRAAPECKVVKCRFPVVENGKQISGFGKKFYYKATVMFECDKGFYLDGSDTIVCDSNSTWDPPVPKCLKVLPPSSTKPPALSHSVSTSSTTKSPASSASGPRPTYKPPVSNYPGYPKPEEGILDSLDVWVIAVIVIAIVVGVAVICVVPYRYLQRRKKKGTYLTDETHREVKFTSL
UniProt P24385, whole entry, looked up: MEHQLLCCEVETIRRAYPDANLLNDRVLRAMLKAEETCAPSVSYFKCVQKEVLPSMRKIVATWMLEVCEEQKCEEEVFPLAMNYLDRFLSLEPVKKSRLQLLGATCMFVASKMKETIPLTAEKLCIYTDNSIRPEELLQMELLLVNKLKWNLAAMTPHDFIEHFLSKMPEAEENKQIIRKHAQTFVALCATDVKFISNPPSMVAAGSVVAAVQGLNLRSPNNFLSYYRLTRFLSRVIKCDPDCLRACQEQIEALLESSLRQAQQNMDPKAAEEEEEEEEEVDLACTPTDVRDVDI
UniProt P48643, whole entry, looked up: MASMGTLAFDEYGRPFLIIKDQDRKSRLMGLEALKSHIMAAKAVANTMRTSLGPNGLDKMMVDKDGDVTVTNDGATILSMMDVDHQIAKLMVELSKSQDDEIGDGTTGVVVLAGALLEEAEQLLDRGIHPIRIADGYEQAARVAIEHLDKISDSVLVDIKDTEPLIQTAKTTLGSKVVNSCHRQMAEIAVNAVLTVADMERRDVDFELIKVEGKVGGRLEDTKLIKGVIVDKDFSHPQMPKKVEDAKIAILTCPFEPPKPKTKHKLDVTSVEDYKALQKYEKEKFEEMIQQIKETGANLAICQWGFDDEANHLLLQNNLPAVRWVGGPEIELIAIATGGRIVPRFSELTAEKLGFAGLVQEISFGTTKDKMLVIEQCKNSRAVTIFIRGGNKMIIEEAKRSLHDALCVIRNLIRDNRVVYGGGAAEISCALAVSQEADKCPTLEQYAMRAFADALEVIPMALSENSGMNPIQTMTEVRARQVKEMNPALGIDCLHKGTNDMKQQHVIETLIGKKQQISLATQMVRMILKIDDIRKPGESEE
UniProt Q8IWP9: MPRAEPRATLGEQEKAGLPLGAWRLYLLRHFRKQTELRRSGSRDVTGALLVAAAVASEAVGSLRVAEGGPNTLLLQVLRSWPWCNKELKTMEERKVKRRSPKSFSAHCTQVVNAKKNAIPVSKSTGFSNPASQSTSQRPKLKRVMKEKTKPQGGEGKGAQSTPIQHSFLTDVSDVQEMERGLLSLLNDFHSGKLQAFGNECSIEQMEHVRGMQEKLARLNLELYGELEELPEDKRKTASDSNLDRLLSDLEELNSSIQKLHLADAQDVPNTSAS
UniProt P60953, whole entry, looked up: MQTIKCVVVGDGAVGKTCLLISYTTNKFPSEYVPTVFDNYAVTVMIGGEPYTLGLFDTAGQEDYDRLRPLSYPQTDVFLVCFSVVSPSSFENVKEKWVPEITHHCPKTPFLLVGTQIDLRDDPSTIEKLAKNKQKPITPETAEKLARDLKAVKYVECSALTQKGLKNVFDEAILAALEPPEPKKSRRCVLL
UniProt P14635, whole entry, looked up: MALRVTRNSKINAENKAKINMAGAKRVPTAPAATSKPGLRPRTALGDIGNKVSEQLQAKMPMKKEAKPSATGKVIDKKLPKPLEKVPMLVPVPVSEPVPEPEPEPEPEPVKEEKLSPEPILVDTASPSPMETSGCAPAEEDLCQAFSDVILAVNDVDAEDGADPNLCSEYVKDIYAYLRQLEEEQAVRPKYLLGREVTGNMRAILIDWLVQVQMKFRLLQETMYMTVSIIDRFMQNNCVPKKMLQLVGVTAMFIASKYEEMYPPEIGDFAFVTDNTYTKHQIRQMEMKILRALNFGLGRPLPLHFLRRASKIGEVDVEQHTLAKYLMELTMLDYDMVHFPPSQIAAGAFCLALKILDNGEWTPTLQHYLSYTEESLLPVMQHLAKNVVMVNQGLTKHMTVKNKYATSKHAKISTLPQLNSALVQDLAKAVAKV
UniProt P30260, whole entry, looked up: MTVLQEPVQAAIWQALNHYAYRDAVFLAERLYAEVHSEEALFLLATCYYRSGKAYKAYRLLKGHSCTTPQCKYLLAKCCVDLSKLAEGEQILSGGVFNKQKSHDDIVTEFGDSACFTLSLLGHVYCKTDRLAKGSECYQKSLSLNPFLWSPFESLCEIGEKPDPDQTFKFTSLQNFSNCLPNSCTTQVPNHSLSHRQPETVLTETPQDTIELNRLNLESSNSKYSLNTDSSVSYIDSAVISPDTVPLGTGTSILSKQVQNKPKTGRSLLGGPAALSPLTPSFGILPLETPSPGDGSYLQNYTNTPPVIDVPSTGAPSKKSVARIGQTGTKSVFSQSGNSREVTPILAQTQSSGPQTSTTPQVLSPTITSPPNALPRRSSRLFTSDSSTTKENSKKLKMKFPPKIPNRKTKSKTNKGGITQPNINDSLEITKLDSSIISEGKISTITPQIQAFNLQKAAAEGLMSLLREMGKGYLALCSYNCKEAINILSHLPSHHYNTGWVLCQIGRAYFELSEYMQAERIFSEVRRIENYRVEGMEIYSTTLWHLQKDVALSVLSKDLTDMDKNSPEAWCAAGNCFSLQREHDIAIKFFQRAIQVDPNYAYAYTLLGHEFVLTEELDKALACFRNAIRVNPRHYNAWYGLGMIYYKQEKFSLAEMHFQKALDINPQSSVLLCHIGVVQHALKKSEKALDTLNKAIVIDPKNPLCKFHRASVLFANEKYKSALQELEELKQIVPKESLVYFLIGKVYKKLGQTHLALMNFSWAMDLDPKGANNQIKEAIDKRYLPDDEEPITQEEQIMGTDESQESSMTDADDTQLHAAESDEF
UniProt O60826, whole entry, looked up: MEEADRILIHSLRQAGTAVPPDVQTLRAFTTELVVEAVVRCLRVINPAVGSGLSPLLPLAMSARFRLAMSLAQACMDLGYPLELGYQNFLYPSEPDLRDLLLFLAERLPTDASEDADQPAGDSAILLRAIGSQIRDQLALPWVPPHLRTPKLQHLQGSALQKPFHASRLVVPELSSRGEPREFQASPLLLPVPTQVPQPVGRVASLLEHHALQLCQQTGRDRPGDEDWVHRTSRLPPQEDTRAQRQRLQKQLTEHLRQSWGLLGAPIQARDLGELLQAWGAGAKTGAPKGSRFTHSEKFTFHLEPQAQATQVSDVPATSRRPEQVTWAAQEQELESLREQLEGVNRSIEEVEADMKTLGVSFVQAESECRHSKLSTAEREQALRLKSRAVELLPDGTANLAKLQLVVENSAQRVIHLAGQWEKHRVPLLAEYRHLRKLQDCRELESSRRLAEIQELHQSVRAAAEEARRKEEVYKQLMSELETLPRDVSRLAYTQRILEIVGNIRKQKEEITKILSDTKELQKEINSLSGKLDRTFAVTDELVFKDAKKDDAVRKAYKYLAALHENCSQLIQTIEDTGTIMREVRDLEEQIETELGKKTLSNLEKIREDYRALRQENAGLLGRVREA
UniProt Q5M9N0: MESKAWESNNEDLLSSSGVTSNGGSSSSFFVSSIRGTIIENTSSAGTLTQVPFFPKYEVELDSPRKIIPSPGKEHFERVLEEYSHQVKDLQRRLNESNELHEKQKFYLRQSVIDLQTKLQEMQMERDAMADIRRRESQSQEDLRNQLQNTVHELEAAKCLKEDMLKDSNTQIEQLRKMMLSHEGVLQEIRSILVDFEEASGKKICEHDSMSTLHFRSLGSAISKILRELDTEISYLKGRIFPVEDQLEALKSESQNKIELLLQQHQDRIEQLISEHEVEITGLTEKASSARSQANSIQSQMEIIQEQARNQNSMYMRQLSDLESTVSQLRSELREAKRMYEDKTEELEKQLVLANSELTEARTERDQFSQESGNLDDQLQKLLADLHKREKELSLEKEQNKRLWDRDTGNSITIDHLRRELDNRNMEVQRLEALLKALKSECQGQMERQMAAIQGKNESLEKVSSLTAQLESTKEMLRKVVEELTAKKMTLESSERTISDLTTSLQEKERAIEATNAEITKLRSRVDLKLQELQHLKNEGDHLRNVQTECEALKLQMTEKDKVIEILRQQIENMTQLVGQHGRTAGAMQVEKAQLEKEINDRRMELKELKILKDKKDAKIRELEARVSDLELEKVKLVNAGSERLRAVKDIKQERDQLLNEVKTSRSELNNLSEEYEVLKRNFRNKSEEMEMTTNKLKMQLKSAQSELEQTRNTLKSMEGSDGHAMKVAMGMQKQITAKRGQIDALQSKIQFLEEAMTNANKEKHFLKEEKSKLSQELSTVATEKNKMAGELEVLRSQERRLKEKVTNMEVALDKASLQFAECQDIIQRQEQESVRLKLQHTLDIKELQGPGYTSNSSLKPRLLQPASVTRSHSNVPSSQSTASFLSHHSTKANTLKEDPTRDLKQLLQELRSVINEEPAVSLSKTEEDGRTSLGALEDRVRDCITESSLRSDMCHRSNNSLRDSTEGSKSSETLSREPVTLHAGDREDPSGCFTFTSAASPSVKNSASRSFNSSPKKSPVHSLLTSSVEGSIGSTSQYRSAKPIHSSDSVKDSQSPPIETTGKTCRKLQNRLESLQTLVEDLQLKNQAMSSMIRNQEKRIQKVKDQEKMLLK
UniProt A6NHX0: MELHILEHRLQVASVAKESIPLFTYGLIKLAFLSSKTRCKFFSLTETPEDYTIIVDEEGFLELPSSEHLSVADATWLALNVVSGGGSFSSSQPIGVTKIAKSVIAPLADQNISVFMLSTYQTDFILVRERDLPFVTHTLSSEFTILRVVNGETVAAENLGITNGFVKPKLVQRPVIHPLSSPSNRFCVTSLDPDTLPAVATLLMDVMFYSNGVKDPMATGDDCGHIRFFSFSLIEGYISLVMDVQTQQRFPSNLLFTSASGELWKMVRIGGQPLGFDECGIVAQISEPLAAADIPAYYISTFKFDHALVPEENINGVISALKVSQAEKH
UniProt Q13951, whole entry, looked up: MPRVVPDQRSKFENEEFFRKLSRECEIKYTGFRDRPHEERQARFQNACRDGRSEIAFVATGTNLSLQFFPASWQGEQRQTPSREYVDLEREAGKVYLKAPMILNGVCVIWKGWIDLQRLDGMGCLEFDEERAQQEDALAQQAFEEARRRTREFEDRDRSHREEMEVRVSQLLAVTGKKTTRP

[2] = compound: CC1=C(C=C(C=C1)NC(=O)C2=CC(=CC=C2)N(C)C)NC(=O)C3=CC=C(C=C3)O
Procedure, shortened: as §1

[3] = compound: CC1=CC=C(C=C1)SC2=C3C=C(SC3=CN=C2)C(=O)N
Procedure, shortened: as §1

[4] = compound: CC1=NC(=CC=C1)C2=C(N=C(N2)C(C)(C)C)C3=CC4=NC=CN=C4C=C3
Procedure, shortened: as §1

Nexturastat A = compound: CCCCN(Cc1ccc(C(=O)NO)cc1)C(=O)Nc1ccccc1 [Nexturastat A]
Procedure, shortened: as §1

vemurafenib = compound: CCCS(=O)(=O)Nc1ccc(F)c(C(=O)c2c[nH]c3ncc(-c4ccc(Cl)cc4)cc23)c1F [vemurafenib]
Procedure, shortened: as §1

[5] = compound: CCCS(=O)(=O)Nc1ccc(F)c(C(=O)c2c[nH]c3ncc(Cl)cc23)c1F
Procedure, shortened: as §1

[6] = compound: CCCc1cc(C)[nH]c(=O)c1CNC(=O)c1cc(-c2ccnc(N3CCN(C)CC3)c2)cc2c1cnn2C(C)C
Procedure, shortened: as §1

givinostat = compound: CCN(CC)Cc1ccc2cc(COC(=O)Nc3ccc(C(=O)NO)cc3)ccc2c1 [givinostat]
Procedure, shortened: as §1

barasertib = compound: CCN(CCCOc1ccc2c(Nc3cc(CC(=O)Nc4cccc(F)c4)[nH]n3)ncnc2c1)CCOP(=O)(O)O [barasertib]
Procedure, shortened: as §1

Measured: log2 fold change

CASP9 (UniProt P55211)
inactive: [1] 0.103 | [2] -0.091 | [3] 0.032 | [4] 0.021 | Nexturastat A 0.045 | vemurafenib 0.107 | [5] 0.111

CC2D1B isoform 2 (UniProt Q5T0F9)
inactive: [1] -0.007 | [2] -0.01 | [3] -0.012 | [4] -0.017 | Nexturastat A 0.089 | vemurafenib 0.148 | [5] 0.009 | [6] 0.03 | givinostat 0.032 | barasertib 0.055

CCDC134 (UniProt Q9H6E4)
inactive: [1] 0.019 | [2] 0.049 | [3] 0.025 | [4] -0.021 | Nexturastat A 0.039 | vemurafenib -0.034 | [5] -0.005 | [6] 0.026 | givinostat 0.039 | barasertib -0.007

CCT3 (UniProt P49368)
inactive: [1] -0.032 | [2] 0.003 | [3] -0.019 | [4] -0.012 | Nexturastat A 0.028 | vemurafenib -0.006 | [5] -0.043 | [6] -0.017 | givinostat -0.024 | barasertib -0.01

CARM1 (UniProt Q86X55)
inactive: [1] 0.006 | [2] 0.005 | [3] 0.01 | [4] 0.01 | Nexturastat A -0.074 | vemurafenib -0.014 | [5] -0.008 | [6] -0.033 | givinostat -0.018 | barasertib -0.005

CARS2 (UniProt Q9HA77)
inactive: [1] -0.019 | [2] 0.003 | [3] -0.036 | [4] -0.016 | Nexturastat A -0.083 | vemurafenib -0.043 | [5] -0.021 | [6] -0.006 | givinostat -0.02 | barasertib 0.028

CCDC58 (UniProt Q4VC31)
inactive: [1] -0.03 | [2] 0.008 | [3] 0.076 | [4] 0.011 | Nexturastat A -0.085 | vemurafenib -0.043 | [5] 0.005 | [6] -0.031 | givinostat -0.035 | barasertib -0.031

CCDC12 (UniProt Q8WUD4)
inactive: [1] 0.017 | [2] -0.001 | [3] 0.059 | [4] 0 | Nexturastat A 0.028 | vemurafenib 0.027 | [5] 0.038 | [6] 0.022 | givinostat -0.026 | barasertib -0.02

CD46 isoform 2 (UniProt P15529)
inactive: [1] 0 | [2] -0.035 | [3] 0.048 | [4] -0.023 | Nexturastat A 0.021 | vemurafenib 0.007 | [5] -0.036 | [6] 0.013 | givinostat -0.001 | barasertib -0.018

CD151 (UniProt P48509)
inactive: [1] -0.125 | [2] -0.057 | [3] -0.002 | [4] 0.027 | Nexturastat A -0.159 | vemurafenib -0.103 | [5] 0 | [6] -0.21 | givinostat 0.018 | barasertib -0.052

CBS (UniProt P35520)
inactive: [1] 0.031 | [2] -0.001 | [3] 0.004 | [4] 0.019 | Nexturastat A -0.08 | vemurafenib -0.021 | [5] -0.004 | [6] -0.016 | givinostat -0.135 | barasertib 0.02

CCND1 (UniProt P24385)
inactive: [1] -0.211 | [2] 0.04

CCT5 (UniProt P48643)
inactive: [1] 0.015 | [2] 0.01 | [3] 0.008 | [4] 0.046 | Nexturastat A -0.115 | vemurafenib 0.005 | [5] -0.006 | [6] -0.008 | givinostat -0.018 | barasertib -0.01

CCDC28A (UniProt Q8IWP9)
inactive: [1] -0.113 | [2] 0.03 | [3] -0.008 | [4] -0.04 | Nexturastat A -0.214 | vemurafenib -0.084 | [5] -0.013 | [6] 0.049 | givinostat 0.01 | barasertib -0.027

CCDC9 (UniProt Q9Y3X0)
inactive: [1] -0.042 | [2] 0.007 | [3] 0.019 | [4] 0.055 | Nexturastat A 0.119 | vemurafenib -0.007 | [5] -0.009 | [6] -0.004 | givinostat -0.069 | barasertib 0.021

CCS (UniProt O14618)
inactive: [1] -0.063 | [2] -0.017 | [3] 0.025 | [4] 0.012 | Nexturastat A -0.055 | vemurafenib -0.036 | [5] 0 | [6] -0.033 | givinostat -0.083 | barasertib 0.034

CDC42 (UniProt P60953)
inactive: [1] -0.006 | [2] -0.014 | [3] 0.033 | [4] 0.083 | Nexturastat A 0.008 | vemurafenib 0 | [5] 0.026 | [6] 0.074 | givinostat -0.123 | barasertib -0.031

CCNB1 (UniProt P14635)
inactive: [1] 0.021 | [2] -0.043 | [3] 0.011 | [4] 0 | Nexturastat A 0.017 | vemurafenib 0.03 | [5] 0.008 | [6] -0.033 | givinostat 0.007 | barasertib -0.007

CDC27 isoform 2 (UniProt P30260)
inactive: [1] -0.006 | [2] -0.008 | [3] -0.013 | [4] -0.018 | Nexturastat A 0.009 | vemurafenib -0.008 | [5] 0.042 | [6] 0.019 | givinostat 0.029 | barasertib -0.014

CCAR1 (UniProt Q8IX12)
inactive: [1] 0.03 | [2] -0.046 | [3] -0.001 | [4] -0.017 | Nexturastat A 0.071 | vemurafenib 0.007 | [5] 0.006 | [6] -0.045 | givinostat 0.027 | barasertib -0.04

CCDC22 (UniProt O60826)
inactive: [1] 0.005 | [2] -0.05 | [3] 0.025 | [4] 0.008 | Nexturastat A 0.025 | vemurafenib -0.019 | [5] 0.05 | [6] 0.045 | givinostat 0.042 | barasertib 0.062

CCM2 isoform 2 (UniProt Q9BSQ5)
inactive: [1] -0.072 | [2] -0.068 | [3] -0.124 | [4] -0.002 | Nexturastat A 0.102 | vemurafenib 0.008 | [5] 0.009 | [6] 0.052 | givinostat -0.003 | barasertib -0.061

Reprinted from the results shown (2 entries):
CCDC22 (UniProt O60826)
inactive: [1] 0.005 | [2] -0.05 | [3] 0.025 | [4] 0.008 | Nexturastat A 0.025 | vemurafenib -0.019 | [5] 0.05 | [6] 0.045 | givinostat 0.042 | barasertib 0.062

CCM2 isoform 2 (UniProt Q9BSQ5)
inactive: [1] -0.072 | [2] -0.068 | [3] -0.124 | [4] -0.002 | Nexturastat A 0.102 | vemurafenib 0.008 | [5] 0.009 | [6] 0.052 | givinostat -0.003 | barasertib -0.061

(further entries)

CCDC158 (UniProt Q5M9N0)
inactive: [1] 0.17 | [2] -0.001 | [3] -0.064 | [4] 0.154 | Nexturastat A 0.096 | vemurafenib -0.079 | [5] 0.007 | [6] -0.096 | givinostat 0.035 | barasertib -0.037

CASTOR2 (UniProt A6NHX0)
inactive: [1] -0.015 | [2] -0.01 | [3] 0.037 | [4] 0.033 | Nexturastat A -0.085 | vemurafenib 0.046 | [6] -0.021 | givinostat 0.041 | barasertib 0.01
active: [5] -0.465

CBFB isoform 2 (UniProt Q13951)
inactive: [1] 0.017 | [2] -0.044 | [3] -0.028 | [4] 0.005 | Nexturastat A 0.095 | vemurafenib 0.077 | [5] 0.013 | [6] 0.186 | givinostat 0.058 | barasertib 0.084

CCDC174 (UniProt Q6PII3)
inactive: [1] -0.026 | [2] -0.073 | [3] -0.033 | [4] -0.043 | Nexturastat A -0.095 | vemurafenib -0.041 | [5] -0.083 | [6] 0.063 | givinostat 0.013 | barasertib -0.042

CCDC6 (UniProt Q16204)
inactive: [1] -0.039 | [2] -0.032 | [3] 0.003 | [4] 0.005 | Nexturastat A -0.078 | vemurafenib 0.029 | [5] 0.011 | [6] -0.016 | givinostat 0.005 | barasertib -0.008

CCNB2 (UniProt O95067)
inactive: [1] 0.039 | [2] -0.007 | [3] -0.002 | [4] 0.062 | Nexturastat A 0.03 | vemurafenib 0.047 | [5] 0.025 | [6] -0.054 | givinostat 0.004 | barasertib 0.01

CD97 (UniProt P48960)
inactive: [1] -0.028 | [2] -0.045 | [3] -0.009 | [4] 0.03 | Nexturastat A -0.038 | vemurafenib 0.021 | [5] -0.023 | [6] -0.046 | givinostat -0.131 | barasertib -0.026

CAVIN1 (UniProt Q6NZI2)
inactive: [1] 0.024 | [2] -0.066 | [3] -0.051 | [4] -0.027 | Nexturastat A 0.186 | vemurafenib -0.068 | [5] -0.047 | [6] 0.073 | givinostat 0.041 | barasertib -0.058

CDC16 (UniProt Q13042)
inactive: [1] 0.026 | [2] 0.003 | [3] -0.015 | [4] -0.007 | Nexturastat A -0.086 | vemurafenib 0.023 | [5] 0.043 | [6] 0.022 | givinostat -0.049 | barasertib -0.004

Reference: the supplement of paper PMC10849652
